One compound from patent US10870102B2, “Radical generating catalyst, method for producing radical, method for producing oxidation reaction product, drug, and drug for agriculture and livestock” (ACENET INC., priority 2015, dated 2020) can be followed below.

Structures are written as SMILES.

The subject of this experiment is Escherichia coli MV1184. Description: MIC/MBC determination, microplate. It is filed as cell-based. The settings on record: MV1184, 24 h.

Broadly, the MIC is the lowest concentration found to suppress growth. Low readings indicate a more susceptible organism, high ones a less susceptible organism. As to `CC(C)(C)CC(C)(C)c1ccc(OCCOCC[N+](C)(C)Cc2ccccc2)cc1` [Comp. Ex. 8, benzethonium chloride], it took 17.5 µg/mL to inhibit growth (MIC).
